According to PubChem BioAssay AID590 (National Center for Advancing Translational Sciences (NCATS), 2007):
In all, about 59,000 compounds went through this assay and about 6,500 (11%) were called active. Inconclusive results, whose numbers are uncertain, are shown with a selection of clear calls. No stated cut-off is given here; in the data, active means max dye-equivalent concentration above about 10 nM; inconclusive means mostly about 1.1 nM to 9.6 nM; inactive means weaker than that.

Test: qHTS Assay for Spectroscopic Profiling in A350 Spectral Region
Details: Compound autofluorescence, 340/450 nm, Alexa 350 dye-equivalents; hits give high values

SMILES	max dye-equivalent concentration
CCNc1ncc2nc(-c3cn(C)c4ccccc34)c(=O)n(-c3ccc(OC)cc3)c2n1	inactive
O=C(NCc1ccc(F)cc1)C1CCC(=O)N1C1CCCCC1 (centres undefined)	inactive
C=CCc1c(C)nc2c(C(=O)O)cnn2c1C	inconclusive: 4.6 nM
O=C(CSc1nnc(-c2ccccc2F)n1C1CCCCC1)N1CCCC1	inconclusive: 1.6 nM
O=C(O)CSc1nnc(-c2cccs2)n1-c1ccc(Cl)cc1	inconclusive: 1.5 nM
Nc1nnc(SCC(=O)NCc2ccc3c(c2)OCO3)s1	inactive
COc1cc2cc(CN(CCCO)S(=O)(=O)c3ccccc3Cl)c(=O)[nH]c2cc1OC	active: 230 nM
CCCCn1c(N)c(N(CCC(C)C)C(=O)CSc2nnc(C)s2)c(=O)[nH]c1=O	inactive
O=c1cc(-c2ccccc2)nc2nc(SCc3ccccc3)[nH]n12	inconclusive: 2.5 nM
Cn1ccnc1-c1nc2ccccc2[nH]c1=O	active: 170 nM
COc1ccccc1CN1CC2(CCN(S(C)(=O)=O)CC2)C1	inactive
CN(C)C(=O)c1cc(S(=O)(=O)N(C)C)c(Cl)cc1N1CCCC1	inconclusive: 1.6 nM
O=C(CN1C(=O)CCS(=O)(=O)c2ccccc21)NCc1ccc(F)cc1	inactive
N#Cc1cc(N)c(Nc2ccccc2)cc1C#N	inconclusive: 6.2 nM
O=C(CSc1nnc(Cc2cc(=O)[nH]c(=O)[nH]2)n1-c1ccccc1)NCC1CCCO1 (centres undefined)	inconclusive: 2.4 nM
O=c1[nH]c(NCCO)nc2c1C1(CCCCC1)Cc1ccccc1-2	active: 290 nM
O=C(c1cc(-c2ccccc2)on1)N1CCN(Cc2ccc3c(c2)OCO3)CC1	inactive
O=C(c1c(Cl)nc2sccn12)N(C(=O)c1c(Cl)nc2sccn12)c1ccc(Cl)cn1	inconclusive: 4.1 nM
O=C1CC(N2CCN(S(=O)(=O)c3cccc(C(F)(F)F)c3)CC2)C(=O)N1Cc1ccccc1 (centres undefined)	inactive
COCCn1c(SCC(=O)Nc2nnc(C)s2)nnc1-c1cc2ccccc2cc1O	inconclusive: 2.8 nM

SMILES	max dye-equivalent concentration
Cc1cccc(C)c1OCC(=O)NCc1nnc(SCC(=O)NC2CCCCC2C)n1C (centres undefined)	inconclusive: 1.3 nM
Cc1nn(CC(N)=O)c(=O)c2ccccc12	inconclusive: 1.4 nM
Nc1nc2c(C(=O)NCc3cccs3)nnn2c2cccc(Cl)c12	inconclusive: 8.5 nM
COc1ccc(CCNC(=O)CSc2nncn2N)cc1OC	inconclusive: 5.5 nM
O=C(Nc1ccccc1C(=O)N1CCOCC1)C1CCCO1 (centres undefined)	inconclusive: 1.1 nM
CCCc1nc(NC(C)=O)c(C#N)c(-c2ccco2)c1CC	inconclusive: 6 nM
CNc1nn(-c2cccc(Cl)c2)nc1N	inconclusive: 4.7 nM
COc1ccc2oc(=O)c(C(=O)N3CCN(c4ccc(F)cc4)CC3)cc2c1	active: 12 nM
Cn1c(NC(=O)c2ccco2)c(-c2ccccc2Cl)c(=O)c2ccccc21	inactive
O=[N+]([O-])c1cccc2cn[nH]c12	inconclusive: 1.2 nM
O=C(NC1CCN(Cc2ccccc2)CC1)C1COc2ccccc2O1 (centres undefined)	inactive
CCN(CC)P(=O)(/C(Cl)=C\Nc1c(C)n(C)n(-c2ccccc2)c1=O)N(CC)CC	inactive
COc1cccc(C(=O)c2cc3ccc(O)cc3oc2=O)c1	inconclusive: 6.1 nM
NC([N-]/N=C/c1ccccn1)=[S]=[Fe].O=S(=O)(O)O	inconclusive: 5.3 nM
CCOC(=O)CCS(=O)(=O)c1nc(-c2ccccc2)cc(C(F)(F)F)n1	inactive
Nc1nnnn1NCc1cccc(OCc2ccccc2)c1	inconclusive: 1.4 nM
CCCC(=O)Nc1ccc(-c2nc3cc(C)c(C)cc3o2)cc1	active: 11 nM
O=C(N1CCOCC1)N(Cc1cccs1)C1CCCC1	inconclusive: 2.9 nM
COc1nc(-c2ccc(C)cc2)ccc1-c1noc(-c2ccco2)n1	inconclusive: 7.6 nM
COc1ccccc1N(CC(=O)NC1CCCCC1)C(=O)CCC(=O)Nc1ccccn1	inconclusive: 1.3 nM

SMILES	max dye-equivalent concentration
CC1(C)CC(=O)C2=C(C1)OC(N)=C(C#N)[C@@]21C(=O)N(CC(N)=O)c2ccccc21	active: 96 nM
O=C(NCc1ccncc1)c1cnccn1	inconclusive: 1.1 nM
COc1cc2[nH]c(=O)n(CCC(=O)NC3CCN(Cc4ccccc4)CC3)c(=O)c2cc1OC	inconclusive: 2.2 nM
COC(=O)c1[nH]c2ccc(C)cc2c1NC(=O)CN1CCc2cc(OC)c(OC)cc2C1	inconclusive: 1.1 nM
COc1cccc(N(C(=O)c2cccs2)c2nc3ccccc3s2)c1	active: 38 nM
O=C(O)[C@@H](c1ccccc1)[C@@H](C(=O)O)c1ccccc1	inactive
O=C(CCNS(=O)(=O)c1ccc(Cl)cc1)N1CCC2(O)CCCCC2C1 (centres undefined)	inconclusive: 1.6 nM
CN1/C(=C/C(=O)c2nc(S(C)(=O)=O)ncc2Cl)C(C)(C)c2ccccc21	inconclusive: 1.7 nM
CC1CCC(O)([C@](C)(C(=O)O)c2ccccc2)CC1 (some centres undefined)	inactive
Cn1cc(/C(Cc2ccccc2)=N\O)c2ccccc21	inconclusive: 1.5 nM
CC(C)OCCCNc1ncnc2c1[nH]c1ccccc12	inconclusive: 1.4 nM
CCOC(=O)CSc1nc2cc3c(cc2cc1C#N)OCO3	active: 120 nM
COc1cccc(Cn2c(=O)cnc3cnc(Nc4ccccc4)nc32)c1	inactive
O=C1CCC(=O)N1CNc1ccc(Oc2ccccc2)cc1	inconclusive: 2.1 nM
Cc1nn2c3c(cnc2c1-c1ccccc1)C(=O)CC(C)C3 (centres undefined)	inconclusive: 8.2 nM
Cc1cc(/N=C/C=C2\N(C)c3ccccc3C2(C)C)n(CCC#N)n1	inconclusive: 1.5 nM
Cc1ccc2c(c1)N(CC(=O)N1CCCCC1c1cccnc1)C(=O)CO2 (centres undefined)	inactive
O=C(NCCN1CCOCC1)c1cc2ccccc2o1	inactive
Nc1nc(CSc2nc3ccccc3s2)nc(N2CCCCC2)n1	inconclusive: 1.6 nM

A run of entries taken from the entries so far, as a working copy:
SMILES	max dye-equivalent concentration
O=C1CC(N2CCN(S(=O)(=O)c3cccc(C(F)(F)F)c3)CC2)C(=O)N1Cc1ccccc1 (centres undefined)	inactive
COCCn1c(SCC(=O)Nc2nnc(C)s2)nnc1-c1cc2ccccc2cc1O	inconclusive: 2.8 nM
Cc1cccc(C)c1OCC(=O)NCc1nnc(SCC(=O)NC2CCCCC2C)n1C (centres undefined)	inconclusive: 1.3 nM
